No constants are given. Whether binding was seen depends on the method and setting. Binding seen in cells or lysates may run through a third protein. Some entries that bind do so weakly or less than the wild type.

Protein sequences, listed by entry. Tags and fused reporters are not part of them. Lines headed by an entry give the natural chain unless they say otherwise; changes in a name come on top.
UniProt Q60793: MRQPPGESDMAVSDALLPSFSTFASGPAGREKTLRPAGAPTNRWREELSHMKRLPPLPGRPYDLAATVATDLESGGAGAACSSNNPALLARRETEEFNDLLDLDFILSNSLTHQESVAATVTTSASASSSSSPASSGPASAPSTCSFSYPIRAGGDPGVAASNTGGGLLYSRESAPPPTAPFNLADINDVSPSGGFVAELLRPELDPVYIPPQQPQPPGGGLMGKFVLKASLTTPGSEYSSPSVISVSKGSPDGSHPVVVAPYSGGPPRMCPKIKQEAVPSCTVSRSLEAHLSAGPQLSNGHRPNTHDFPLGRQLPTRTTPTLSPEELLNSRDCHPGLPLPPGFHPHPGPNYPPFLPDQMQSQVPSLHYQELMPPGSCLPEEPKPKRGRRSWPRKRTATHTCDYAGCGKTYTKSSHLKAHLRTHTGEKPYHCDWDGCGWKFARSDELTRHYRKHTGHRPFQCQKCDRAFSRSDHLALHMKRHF
UniProt Q61026: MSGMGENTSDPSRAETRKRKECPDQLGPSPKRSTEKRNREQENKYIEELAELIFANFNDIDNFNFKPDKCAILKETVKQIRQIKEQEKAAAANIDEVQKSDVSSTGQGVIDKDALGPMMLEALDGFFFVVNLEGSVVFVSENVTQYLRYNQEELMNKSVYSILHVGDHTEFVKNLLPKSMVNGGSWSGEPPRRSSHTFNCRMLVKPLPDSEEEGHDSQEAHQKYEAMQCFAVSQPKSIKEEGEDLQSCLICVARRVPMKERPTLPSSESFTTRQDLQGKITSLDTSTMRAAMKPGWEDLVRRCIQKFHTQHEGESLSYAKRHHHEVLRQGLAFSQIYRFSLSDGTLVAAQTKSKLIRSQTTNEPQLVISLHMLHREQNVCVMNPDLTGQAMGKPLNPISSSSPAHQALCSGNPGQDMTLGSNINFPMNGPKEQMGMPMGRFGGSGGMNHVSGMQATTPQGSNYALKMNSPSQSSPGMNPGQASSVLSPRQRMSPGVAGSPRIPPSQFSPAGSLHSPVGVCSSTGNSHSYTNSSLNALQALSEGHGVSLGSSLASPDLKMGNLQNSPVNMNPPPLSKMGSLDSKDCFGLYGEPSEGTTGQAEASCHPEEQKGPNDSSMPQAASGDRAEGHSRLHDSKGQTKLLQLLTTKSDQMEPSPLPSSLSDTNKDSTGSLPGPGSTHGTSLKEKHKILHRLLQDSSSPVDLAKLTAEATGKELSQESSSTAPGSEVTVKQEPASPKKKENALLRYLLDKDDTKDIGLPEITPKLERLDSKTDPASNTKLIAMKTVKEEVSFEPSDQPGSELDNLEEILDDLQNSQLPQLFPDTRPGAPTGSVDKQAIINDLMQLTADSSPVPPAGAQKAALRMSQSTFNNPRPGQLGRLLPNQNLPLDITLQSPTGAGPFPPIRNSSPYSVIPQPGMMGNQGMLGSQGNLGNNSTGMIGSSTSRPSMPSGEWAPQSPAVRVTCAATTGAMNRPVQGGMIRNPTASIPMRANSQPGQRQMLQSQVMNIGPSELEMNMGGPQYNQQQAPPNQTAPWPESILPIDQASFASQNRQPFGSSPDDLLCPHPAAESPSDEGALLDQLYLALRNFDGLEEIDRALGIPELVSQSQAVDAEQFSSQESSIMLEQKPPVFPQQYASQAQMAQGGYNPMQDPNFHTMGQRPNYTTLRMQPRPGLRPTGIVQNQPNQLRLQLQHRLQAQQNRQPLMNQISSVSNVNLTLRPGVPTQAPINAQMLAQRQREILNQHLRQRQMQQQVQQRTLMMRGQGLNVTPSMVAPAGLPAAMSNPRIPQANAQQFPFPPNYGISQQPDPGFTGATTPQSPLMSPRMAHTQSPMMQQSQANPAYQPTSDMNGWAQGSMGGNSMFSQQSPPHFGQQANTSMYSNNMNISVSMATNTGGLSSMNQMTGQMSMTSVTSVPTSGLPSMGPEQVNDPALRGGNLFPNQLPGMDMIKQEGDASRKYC
UniProt Q15788: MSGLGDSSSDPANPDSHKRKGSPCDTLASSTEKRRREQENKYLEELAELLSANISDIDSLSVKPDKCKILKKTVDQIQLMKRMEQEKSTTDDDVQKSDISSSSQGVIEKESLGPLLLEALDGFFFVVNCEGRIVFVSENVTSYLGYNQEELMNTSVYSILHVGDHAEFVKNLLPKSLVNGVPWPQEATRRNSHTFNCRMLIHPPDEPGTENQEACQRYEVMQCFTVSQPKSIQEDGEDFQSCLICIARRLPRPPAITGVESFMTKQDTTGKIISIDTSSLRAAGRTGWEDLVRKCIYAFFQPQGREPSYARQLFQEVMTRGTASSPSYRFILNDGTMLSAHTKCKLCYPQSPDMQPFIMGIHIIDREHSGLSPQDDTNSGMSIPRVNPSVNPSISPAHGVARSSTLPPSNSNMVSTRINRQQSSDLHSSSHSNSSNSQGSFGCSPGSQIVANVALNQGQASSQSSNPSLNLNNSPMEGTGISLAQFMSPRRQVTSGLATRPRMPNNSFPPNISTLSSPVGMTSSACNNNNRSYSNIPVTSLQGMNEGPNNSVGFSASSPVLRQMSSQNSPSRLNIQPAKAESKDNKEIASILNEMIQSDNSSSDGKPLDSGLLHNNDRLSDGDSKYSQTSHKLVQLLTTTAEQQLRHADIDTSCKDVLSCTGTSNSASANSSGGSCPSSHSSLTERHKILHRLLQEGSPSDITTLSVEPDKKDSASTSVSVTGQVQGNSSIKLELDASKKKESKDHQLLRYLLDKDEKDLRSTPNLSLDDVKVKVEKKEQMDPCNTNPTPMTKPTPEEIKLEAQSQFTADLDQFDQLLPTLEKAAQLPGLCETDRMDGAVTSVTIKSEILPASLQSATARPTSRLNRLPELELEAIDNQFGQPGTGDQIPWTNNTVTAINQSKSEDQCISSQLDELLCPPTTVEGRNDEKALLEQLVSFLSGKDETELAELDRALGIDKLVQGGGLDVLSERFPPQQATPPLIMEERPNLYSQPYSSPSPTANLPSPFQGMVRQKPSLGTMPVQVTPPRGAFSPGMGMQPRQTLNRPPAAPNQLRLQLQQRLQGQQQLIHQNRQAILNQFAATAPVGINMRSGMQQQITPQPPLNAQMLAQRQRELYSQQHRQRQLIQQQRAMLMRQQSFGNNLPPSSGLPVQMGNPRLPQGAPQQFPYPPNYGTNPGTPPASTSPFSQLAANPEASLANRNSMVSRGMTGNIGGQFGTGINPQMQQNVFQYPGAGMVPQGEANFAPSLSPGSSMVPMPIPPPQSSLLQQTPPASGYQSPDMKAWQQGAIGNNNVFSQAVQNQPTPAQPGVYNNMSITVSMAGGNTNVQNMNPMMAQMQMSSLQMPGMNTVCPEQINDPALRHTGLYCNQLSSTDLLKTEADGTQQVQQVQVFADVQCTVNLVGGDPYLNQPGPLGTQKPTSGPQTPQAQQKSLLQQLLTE

This assay deals with bacterially expressed full-length His-tagged KLF4 (UniProt Q60793). Description: pull-down; His-KLF4 immobilised on metal-affinity resin; GRIP1 derivatives and SRC1 in vitro transcribed and translated with [35S]-methionine; autoradiography of bound material; only the target purified.
With “GRIP1 765C truncation mutant, in vitro transcribed and translated (from UniProt Q61026 765-1462) (domain or fragment)”, the binding result is reported as “no binding”.

In the case of “GRIP1 N765 truncation mutant, in vitro transcribed and translated (from UniProt Q61026 1-765) (domain or fragment)”, the binding entry is given as “binds”.

As for “GRIP1 N1007 truncation mutant, in vitro transcribed and translated (from UniProt Q61026 1-1007) (domain or fragment)”, the binding entry was “binds”.

Regarding “full-length SRC1, in vitro transcribed and translated (from UniProt Q15788 1-1441)”, the binding result is given as “no binding”.

Values taken from paper PMC4974480.
